Source: patent US20240092919A1
Residue numbers refer to the chain shown, from its start. No constants are given. Whether binding was seen depends on the method and setting. Some results given as binding are weak or reduced against the parent protein; the word gives no strength.

Sequences of proteins named here, by UniProt entry; tags and fusion partners are left off. A change or cut given only in a name is not applied to a line headed by its entry.
UniProt P01848: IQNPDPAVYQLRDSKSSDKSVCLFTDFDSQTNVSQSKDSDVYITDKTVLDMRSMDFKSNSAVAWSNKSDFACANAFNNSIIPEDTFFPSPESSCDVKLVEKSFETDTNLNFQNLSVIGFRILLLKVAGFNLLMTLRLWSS
UniProt P01850: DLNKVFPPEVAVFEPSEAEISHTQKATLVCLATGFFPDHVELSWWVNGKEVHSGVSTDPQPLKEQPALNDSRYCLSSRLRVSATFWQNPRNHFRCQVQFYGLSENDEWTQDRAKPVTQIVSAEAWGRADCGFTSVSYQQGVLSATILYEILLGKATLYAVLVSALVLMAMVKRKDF

What was measured:
[1] = molecular target: Human T cell receptor on human primary T cells (human) (UniProt P01848+P01850); assay: flow cytometry competition on human primary T cells; tagless ISVD titrated against a fixed concentration of Flag3-His6-tagged ligand, labelled T017000624 on the sheet; anti-FLAG M2 + PE goat anti-mouse; MFI (mean PE) [panel human primary T cells]
[2] = molecular target: human TCR on human primary T cells (human) (UniProt P01848+P01850); assay: flow cytometry competition on human primary T cells

B1: T017000679 (VHH)
VHH: DVQLVESGGGVVQPGGSLRLSCVASGYVHKINFYGWYRQAPGKEREKVAHISIGDQTDYADSAKGRFTISRDESKNTVYLQMNSLRPEDTALYYCRALSRIWPYDYWGQGTLVTVSS
B1 was tested, and the binding [1] was “binds” and the binding [2] was “binds”.

B2: T017000681 (VHH)
VHH: B1 VHH with L92T
With B2 the binding [1] was “binds” and the binding [2] was “binds”.
